Experimental findings from US10765675B2, “Compositions and methods for treating Ewing family tumors” (priority 2015, dated 2020) are described below.

Structures are written as SMILES. Where a name gives a salt, the structure may show the parent alone.

For one test, the system named is TC-71 cells. In words: cells. The conditions noted are these: Homo sapiens, TC-71, 24 h, read-out: EC50 (concentration of drug that inhibits growth of the tumor cells by 50% as compared to vehicle-treated control). From the text:
(§1) The combination index (CI) accounts for the dose response of single drugs to determine the combination effect. […] Enzyme Regul. 22:27-55. The equation for calculating CI is as follows: […]

For the next test, the system named is TC-32 cells. The test can be described thus: cells. The note with it: Homo sapiens, TC-32, 24 h, read-out: EC50 (concentration of drug that inhibits growth of the tumor cells by 50% as compared to vehicle-treated control).
Text: as §1

For `Cc1ccc(NC(=O)c2ccc(CN3CCN(C)CC3)cc2)cc1Nc1nccc(-c2cccnc2)n1` [imatinib, imatinib mesylate], the EC50 in the test on TC-71 cells was 23.7 µM; in the test on TC-32 cells, 44.4 µM.
